Experimental data reported in article PMC3834835, “Crystal structure of RuvC resolvase in complex with Holliday junction substrate” (Nucleic Acids Research, 2013).
Residue numbers refer to the chain shown, from its start. The exact form of at least one protein or probe is not confirmed. For some of these results: A negative result means that nothing was seen under these conditions. Tags and fusion partners may be left off the protein sequences shown. For some of these results: Weaker means in comparison with the reference protein, sequence or condition of that experiment. For some of these results: At least one verdict rests on a figure or table, not on a statement of the authors.

Experiments:
[1] = target: T1, Tt-RuvC E70Q (Thermus thermophilus) (UniProt Q5SJC4); test: co-crystallization; conditions: structure not stated for this junction; recombinant protein; folded or branched DNA
T1 sequence (looked up, limits assumed): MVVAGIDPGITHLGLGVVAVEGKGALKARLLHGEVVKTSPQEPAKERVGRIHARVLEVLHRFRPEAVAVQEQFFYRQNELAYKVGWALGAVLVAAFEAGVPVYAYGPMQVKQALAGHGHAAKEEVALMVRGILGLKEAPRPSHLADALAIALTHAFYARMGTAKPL

[2] = target: T2, Tt-RuvC E70Q R140C (Thermus thermophilus) (UniProt Q5SJC4); test: site-specific thiol cross-linking; conditions: 5 mM Mg2+, 100 mM KCl, no cross-link (contact position, not loss of affinity), Cross-linking: 100 mM NaCl, 10 mM HEPES pH 7.0, 0.5 mM DTT, 15% glycerol, 5 mM MgCl2 (+100 mM KCl for backbone thiols), protein:DNA 1:1, 37 C 2.5 h then 25 C overnight, recombinant protein, protein details: N-terminal His-tag, folded or branched DNA
T2 sequence (looked up, limits assumed): T1 sequence (looked up, limits assumed) with R140C

[3] = target: T3, Tt-RuvC E70Q T11C (Thermus thermophilus) (UniProt Q5SJC4); test: site-specific thiol cross-linking; conditions: 5 mM Mg2+, 100 mM KCl, some product; thiol tether on phosphate after nt 25 of strands 2 and 4; Cross-linking: 100 mM NaCl, 10 mM HEPES pH 7.0, 0.5 mM DTT, 15% glycerol, 5 mM MgCl2 (+100 mM KCl for backbone thiols), protein:DNA 1:1, 37 C 2.5 h then 25 C overnight; recombinant protein; protein details: N-terminal His-tag; folded or branched DNA
T3 sequence (looked up, limits assumed): T1 sequence (looked up, limits assumed) with T11C

CAATCGGCATTCACCTTTGGTGATTCGGCAGAT / ATCTGCCGATTCTGGTTTCCAGATTGCCGATTG [HJ J221m/J222m]
binding result [1]: binds

GACGGCCTCGCAATCAGCTATGACCGAGCACGCGAGATGT / ACATCTCGCGTGCTCGGTCATTCGTCAGATGCGGAGTGAA / TTCACTCCGCATCTGACGATTCTGGCTGTGGCGTGTTTCT / AGAAACACGCCACAGCCAGAAAGCTGATTGCGAGGCCGTC [HJ-29bb]
binding result ([2]; thiol tether on phosphate after nt 25 of strands 2 and 4): no binding | binding result [3]: binds more weakly

GACGGCCTCGCAATCGACTATGACCGAGCACGCGAGATGT / ACATCTCGCGTGCTCGGTCATTCTGCAGATGCGGAGTGAA / TTCACTCCGCATCTGCAGATTCTGGCTGTGGCGTGTTTCT / AGAAACACGCCACAGCCAGAAAGTCGATTGCGAGGCCGTC [HJ-28bb]
binding result ([2]; thiol tether on phosphate after nt 24 of strands 2 and 4): no binding
